Assay results taken from PMC6648895.
Results are given in words; binding and its absence hold for the method and conditions named. In cells and extracts the contact can be indirect. A yes stands for co-enrichment or nearness to the bait. Other partners may have been found. For some of these results: A no says only that the protein was not detected with the bait. One block for each binder: values may come before it.

Sequences of proteins named here, by UniProt entry; tags and fusion partners are left off.
UniProt P39939: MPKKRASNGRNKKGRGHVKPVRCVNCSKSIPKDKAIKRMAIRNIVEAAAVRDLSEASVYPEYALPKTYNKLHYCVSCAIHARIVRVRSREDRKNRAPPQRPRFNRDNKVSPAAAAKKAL

How the values were obtained:
Test in all cases: affinity purification with mass spectrometry; C-terminally TAP-tagged 40S r-protein as bait; tandem-affinity purification (IgG Sepharose, TEV elution, Calmodulin Sepharose) from yeast lysate in 50 mM Tris-HCl pH 7.5, 100 mM NaCl, 1.5 mM MgCl2, 0.1% NP-40, 1 mM DTT; label-free semi-quantitative LC-MS/MS, intensities plotted against the mean of all purifications
[1] = molecular target: Rps26b-TAP (S. cerevisiae) (UniProt P39939)
[2] = molecular target: Rps14b-TAP (S. cerevisiae) (UniProt P39516)
Rps2-TAP (S. cerevisiae) = molecular target: T1, Rps2-TAP (S. cerevisiae) (UniProt P25443)
T1 sequence: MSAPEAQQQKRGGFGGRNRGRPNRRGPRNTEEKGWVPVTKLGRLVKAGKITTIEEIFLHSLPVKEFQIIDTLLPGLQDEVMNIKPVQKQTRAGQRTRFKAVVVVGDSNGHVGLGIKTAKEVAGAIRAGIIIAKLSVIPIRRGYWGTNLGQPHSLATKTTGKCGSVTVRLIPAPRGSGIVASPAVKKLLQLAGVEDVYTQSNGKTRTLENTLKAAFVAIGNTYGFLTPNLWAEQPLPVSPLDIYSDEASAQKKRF

binding [1]: no binding | binding [2]: binds
B1: Fap7 (protein, UniProt Q12055 1-197)
chain: MEARRYGPNIIVTGTPGCGKSSTCEFLKNKLKDYKYYNISDFAKDNDCFEGYDEGRKSHIVDEDKLLDMLEPLLRQGNSIVDWHVNDVFPERLIDLVVVLRCDNSNLYSRLHARGYHDSKIEENLDAEIMGVVKQDAVESYEPHIVVELQSDTKEDMVSNVSRIVAWEKMWLEQHPDGVTNEYQGPRSDDEDDEDSE

binding (Rps2-TAP (S. cerevisiae)): binds
B2: Tsr4 (endogenous) (protein, UniProt P25040 1-408)
chain: MSKIEELPPSDTDDHSYSSKPGDVFLAFVDAPVKETDDILVEDSFIGGEPKWLHPDSEPPAELLKCGACKSADNMKLLLQAFSPLDDEQMSAIQQRLGINNMSYINPQDDRVLYVFLCTECQRKGNSVRCIRGVKKNKNVDSLSEKMASTSLEKDFQINPFDLSNNSDSKCNAFSSNPFGGANANPFGADSINSNISQSKDEGKKKESATVSAKTARKLHDLQKDKEYDGNKCFKSCLLYVEEETFKNKKPAHLQLPKNLKIDKEALDLTGDEDLEKDPIKLDPRTEKLSKFLDDDTFQKFQEVVGYNPLQVLRYDLGGKPLLYAETKVDILSTVPRPGYNPSSQRIFEMQLMPKMIFDLEEVVSVDNGMEWGTILVFTDVENYMPEFDEHGVGYVEECVKVQWESRT

binding [1]: no binding
B3: Tsr2 (protein, UniProt Q06672 1-205)
chain: MSTQYIDETAFVQAEQGKTNLMFSDEKQQARFELGVSMVIYKWDALDVAVENSWGGPDSAEKRDWITGIVVDLFKNEKVVDAALIEETLLYAMIDEFETNVEDDSALPIAVEVINIYNDCFNLNYNKVEKLYLEWQEKQRTKKSKRVVHIEGDDDEDDEDVEDYDDEDEDEEMDEVVPDLVSSKPEPIVDEDGFELVQPKGRRKH
